Laboratory results taken from article PMC10729423.
Results are given in words; binding and its absence hold for the method and conditions named. In cells and extracts the contact can be indirect. Some binding calls cover weakened binding; strength is not graded here.

Sequences of proteins named here, by UniProt entry; tags and fusion partners are left off.
UniProt Q6R327: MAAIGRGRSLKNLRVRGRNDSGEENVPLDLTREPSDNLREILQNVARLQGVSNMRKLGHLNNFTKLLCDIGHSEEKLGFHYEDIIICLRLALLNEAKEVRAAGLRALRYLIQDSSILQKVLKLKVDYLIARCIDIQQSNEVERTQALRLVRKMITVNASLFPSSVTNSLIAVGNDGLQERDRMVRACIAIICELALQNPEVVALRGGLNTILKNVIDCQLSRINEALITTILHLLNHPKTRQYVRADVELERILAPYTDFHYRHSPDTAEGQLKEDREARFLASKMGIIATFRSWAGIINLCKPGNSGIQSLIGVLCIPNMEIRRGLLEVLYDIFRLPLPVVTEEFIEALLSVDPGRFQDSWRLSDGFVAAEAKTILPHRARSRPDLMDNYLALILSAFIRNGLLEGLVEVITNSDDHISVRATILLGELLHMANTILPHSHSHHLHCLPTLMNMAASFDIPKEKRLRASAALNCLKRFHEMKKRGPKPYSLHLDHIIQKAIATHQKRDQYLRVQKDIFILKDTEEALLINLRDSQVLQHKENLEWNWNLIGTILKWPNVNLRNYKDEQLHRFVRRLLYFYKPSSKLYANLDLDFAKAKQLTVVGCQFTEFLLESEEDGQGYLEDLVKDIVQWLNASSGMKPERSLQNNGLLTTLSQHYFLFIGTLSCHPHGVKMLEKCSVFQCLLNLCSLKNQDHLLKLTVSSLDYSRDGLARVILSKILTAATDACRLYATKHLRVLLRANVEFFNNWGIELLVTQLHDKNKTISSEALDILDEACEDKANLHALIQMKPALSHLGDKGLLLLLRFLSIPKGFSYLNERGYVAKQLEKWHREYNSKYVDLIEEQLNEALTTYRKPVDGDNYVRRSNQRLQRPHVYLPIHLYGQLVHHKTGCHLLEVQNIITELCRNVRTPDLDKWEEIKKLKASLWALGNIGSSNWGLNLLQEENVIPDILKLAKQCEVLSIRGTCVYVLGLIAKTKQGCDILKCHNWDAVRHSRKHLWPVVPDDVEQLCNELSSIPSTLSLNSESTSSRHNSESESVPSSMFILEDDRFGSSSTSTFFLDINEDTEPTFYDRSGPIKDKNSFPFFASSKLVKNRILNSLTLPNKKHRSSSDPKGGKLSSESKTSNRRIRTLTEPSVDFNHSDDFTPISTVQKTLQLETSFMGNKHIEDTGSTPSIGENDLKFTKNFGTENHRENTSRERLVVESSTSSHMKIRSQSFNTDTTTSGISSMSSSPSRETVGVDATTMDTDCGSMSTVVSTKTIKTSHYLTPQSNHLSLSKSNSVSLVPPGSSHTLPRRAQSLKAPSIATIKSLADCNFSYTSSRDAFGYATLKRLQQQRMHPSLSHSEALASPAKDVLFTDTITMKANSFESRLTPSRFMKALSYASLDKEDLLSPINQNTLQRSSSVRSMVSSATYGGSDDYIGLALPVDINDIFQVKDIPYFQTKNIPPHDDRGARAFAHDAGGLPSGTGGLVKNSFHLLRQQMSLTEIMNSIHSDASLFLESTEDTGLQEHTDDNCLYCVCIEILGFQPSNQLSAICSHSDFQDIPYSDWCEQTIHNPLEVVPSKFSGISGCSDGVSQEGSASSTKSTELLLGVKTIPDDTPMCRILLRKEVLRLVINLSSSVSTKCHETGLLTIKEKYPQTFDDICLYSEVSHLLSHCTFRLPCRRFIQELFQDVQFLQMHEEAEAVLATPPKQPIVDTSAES

Tests used:
[1] = target: Rictor (human (endogenous in Hep3B)) (UniProt Q6R327); assay: co-IP; Hep3B cells 48 h after transfection with pCMV-p53wt; precipitation with Rictor and p53 antibodies, immunoblotting
[2] = target: Rictor (human (endogenous in Hep3B)) (UniProt Q6R327); assay: condition: only cytoplasmic proteins (fractionation); co-IP; Hep3B cells transfected with pCMV-p53wt, fractionated; cytoplasmic proteins only; precipitation with the Rictor antibody

binding [1]: binds
binding [2]: no binding
Substance: wild-type p53 (from UniProt P04637 1-393)
